# The other results are listed elsewhere or left out.
# Sequences of proteins named here, by UniProt entry; tags and fusion partners are left off.
# UniProt Q0JBA9, entry or part of it: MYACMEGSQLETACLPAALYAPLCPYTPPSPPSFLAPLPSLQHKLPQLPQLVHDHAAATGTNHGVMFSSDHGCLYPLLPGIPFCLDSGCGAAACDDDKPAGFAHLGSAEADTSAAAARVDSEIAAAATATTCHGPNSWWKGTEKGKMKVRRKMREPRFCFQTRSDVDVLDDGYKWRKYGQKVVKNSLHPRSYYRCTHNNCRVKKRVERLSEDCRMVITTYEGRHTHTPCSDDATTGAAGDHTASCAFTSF
# Target: OsWRKY34 (Oryza sativa, UniProt Q0JBA9 1-250)
# Assay: protein-binding microarray (RPBM); PBS, 2% BSA, 51.3 ng/ul salmon testes DNA, 50 uM zinc acetate, 200 nM TF, 25 C, 1 h; high values mean tight binding
# Conditions: protein: recombinant; tags: N-terminal polyhistidine and DsRed monomer fusion (pET32a); label: CyDye5-dUTP incorporated in the synthesized complementary strand; 3' TTTTT single-stranded linker to array surface; dsDNA, one strand shown
# Procedure, shortened: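 Per-feature fluorescence intensity (arbitrary units), read on an Axon 4000B scanner, is the binding signal. Transcription factors carrying an N-terminal polyhistidine tag and DsRed fusion were expressed in E. coli BL21-CodonPlus and purified on Ni–NTA. A custom Agilent array, made double-stranded by primer extension with Cy5-dUTP and blocked with 2% BSA, was incubated with 200 nM protein in PBS, 2% BSA, salmon testes DNA and 50 µM zinc acetate at 25 °C for 1 h and then washed.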
row,Sequence,binding signal
1,CTCTTGATTTTCAGATAAGTTTGACCATTCATCTTATTAACGGAGTCACCTAGTGCAG,8140 fluorescence intensity (a.u.)
2,AGTCATCACCCTTCTCTTTTTTGTTTTGTGTGATGCTAATCGGAGTCACCTAGTGCAG,11600 fluorescence intensity (a.u.)
3,GACAACTCCACACACTAACTCTCTCTCCTTGTTGCTCCGACGGAGTCACCTAGTGCAG,8520 fluorescence intensity (a.u.)
4,AGAAGATGTGCTAATTGATTTTTGTTTTGTTTTGTGAAATCGGAGTCACCTAGTGCAG,8260 fluorescence intensity (a.u.)
5,GCGGGTCTCTCCCACGTCCATCGCCCGTCACCATCCGCATCGGAGTCACCTAGTGCAG,8530 fluorescence intensity (a.u.)
6,ACAAACATTTGCCACTCCGCGCCACGTCACGCTAACTGACCGGAGTCACCTAGTGCAG,9810 fluorescence intensity (a.u.)
7,CTCGCCTCTAGGGTTCCGCCGTTTTCCGCGGCGCGCCACCCGGAGTCACCTAGTGCAG,9410 fluorescence intensity (a.u.)
8,GTTAGCTCTAGATCTCAAATTAATGACTACCCCTGTTTTTCGGAGTCACCTAGTGCAG,8700 fluorescence intensity (a.u.)
9,CTACTATTGCGTTGTTTTATTTTGGCCAGTTTATTTCAAACGGAGTCACCTAGTGCAG,13400 fluorescence intensity (a.u.)
10,GAAGGGCGGGAAGTCGGTGTGGGGAGGGTAGGATGAGCTCCGGAGTCACCTAGTGCAG,16100 fluorescence intensity (a.u.)
11,GTCAGGCACAACCCTTTTTATCAATTCATGCTGCTCTATGCGGAGTCACCTAGTGCAG,8400 fluorescence intensity (a.u.)
12,GCTTTCCACGACTCTCTTTCGCCGCAGTCTCTGCTTCCGTCGGAGTCACCTAGTGCAG,11600 fluorescence intensity (a.u.)
13,AGAAAATTCAGTTGATCTCTCTCTCTCTCTATCTCTCTCTCGGAGTCACCTAGTGCAG,9010 fluorescence intensity (a.u.)
14,CCTTGCAGCCACTTTGCTTCAGATTTTTGTGTCTTTTGCTCGGAGTCACCTAGTGCAG,9700 fluorescence intensity (a.u.)
15,AACTTATTAGCCGGTTTTCTTACAACGTTGACCGAAAGTCCGGAGTCACCTAGTGCAG,14000 fluorescence intensity (a.u.)
16,TTCTTTTGTAGGCATACTACATCCCTTGCTACTTATGTGACGGAGTCACCTAGTGCAG,8030 fluorescence intensity (a.u.)
17,TGTCATCTTTCATGAAACAGTTTTTGACTGAGTTCGTTGACGGAGTCACCTAGTGCAG,9350 fluorescence intensity (a.u.)
18,TCTTTCTTGTTTTATGTGCTTTACATAATCTTAATCTTCACGGAGTCACCTAGTGCAG,8960 fluorescence intensity (a.u.)
19,CGGTTGCTTGGGTGCTTGTATGCTGGGTTTGTGCGATTCGCGGAGTCACCTAGTGCAG,12700 fluorescence intensity (a.u.)
20,ACAACTCACTCTCTTCATTTTCCATTCTCGTGCTTTTCAACGGAGTCACCTAGTGCAG,16600 fluorescence intensity (a.u.)
21,TGCCAATCTCATGTTTTTGTGTCAAAACCATTGTGCTAGACGGAGTCACCTAGTGCAG,10000 fluorescence intensity (a.u.)
22,AGACGGCCTCCGCGCCGCTATCTCATCTTCCCGTTCTCTCCGGAGTCACCTAGTGCAG,11000 fluorescence intensity (a.u.)
23,AAGTATGATACCGATTTCAACCGTTTTCACCCCTACCCTTCGGAGTCACCTAGTGCAG,9600 fluorescence intensity (a.u.)
24,TTTTCTGTCGATCGGAATTGGTCATCTTTGGTTGGTTCAGCGGAGTCACCTAGTGCAG,9690 fluorescence intensity (a.u.)
25,TTTTTTTTCCTTTGTGCTTGCAGGTCAGAACATCCGTAAGCGGAGTCACCTAGTGCAG,10100 fluorescence intensity (a.u.)
26,GAATCTTTGTCGACTGATAGTGTTGAGCTCTGGTTGGGTTCGGAGTCACCTAGTGCAG,9690 fluorescence intensity (a.u.)
27,GTTTGGCCATGGTGCCGTCGTTGTCTCGTTGATGCTTAGTCGGAGTCACCTAGTGCAG,10700 fluorescence intensity (a.u.)

row,Sequence,binding signal
1,CTTCAATTGGCATCATGGATGATTTTTGTGCAGTCTATTCCGGAGTCACCTAGTGCAG,8110 fluorescence intensity (a.u.)
2,TTCTTGAATTGCTGGAGAGGGGTGGGGAAGAAAGATCGGGCGGAGTCACCTAGTGCAG,9830 fluorescence intensity (a.u.)
3,ACTACACCACTGTTCTTGTGGCTTTCAACGCTAGTATTGACGGAGTCACCTAGTGCAG,9710 fluorescence intensity (a.u.)
4,TTGTACACTTATGATTTCCTATTTTTGCATATGATTTTGTCGGAGTCACCTAGTGCAG,8050 fluorescence intensity (a.u.)
5,TGGGTTGTGTCTCATTTTTACTAATTTTTTTTAGTACAGACGGAGTCACCTAGTGCAG,10700 fluorescence intensity (a.u.)
6,CTCCATCTCGCTCGGTCCCCGTCCCCAACCTGCAAACCCTCGGAGTCACCTAGTGCAG,9480 fluorescence intensity (a.u.)
7,CCGCTCTCCACCACTCCGCCTGCCTGCATGTCCACCGCCGCGGAGTCACCTAGTGCAG,8410 fluorescence intensity (a.u.)
8,ACATGCAAACACTCCAGTTATACACTTGAACTGCTTTGAACGGAGTCACCTAGTGCAG,9920 fluorescence intensity (a.u.)
9,ACTGCTCAAGATTTGCCTTCCAGTTTACTCCATGATGACCCGGAGTCACCTAGTGCAG,9080 fluorescence intensity (a.u.)
10,GTTTGGTCTGTTTCTCTCAGGCCTTCTTTTTTTATTAGCCCGGAGTCACCTAGTGCAG,10200 fluorescence intensity (a.u.)
11,ACGAATTCCTCAACCTTATCGATATTTTTCTCTCCTTTTTCGGAGTCACCTAGTGCAG,10100 fluorescence intensity (a.u.)
12,AAGTGTTTCTTGGTGTATAGTATGTTTTGTTTGTTGCCATCGGAGTCACCTAGTGCAG,8040 fluorescence intensity (a.u.)
13,GTGGGAGAGTGAGAGGGGCTTCGGTTTTTTTTTCTTTTTCCGGAGTCACCTAGTGCAG,11200 fluorescence intensity (a.u.)
14,CTATTTAGTCCTTGGTTAGTTCCCAATTTTTTCTTTAAACCGGAGTCACCTAGTGCAG,9700 fluorescence intensity (a.u.)
15,CTCTGTTTGCCTTCTGATTTTTATTACTAGTAGCTTAATTCGGAGTCACCTAGTGCAG,8860 fluorescence intensity (a.u.)
16,CAAATCTGCACTTTCTACCATTTTTTCTCTGTGATGTGGCCGGAGTCACCTAGTGCAG,8800 fluorescence intensity (a.u.)
17,CCCGTTTATGTCATCTTATTGTACCCGCTCCAAACGCGTACGGAGTCACCTAGTGCAG,10000 fluorescence intensity (a.u.)
18,GCCATCTAGTTCCTCCTACCACCACGTCCTCTTTTCCTGCCGGAGTCACCTAGTGCAG,8430 fluorescence intensity (a.u.)
19,ACTGGAATTTGCTTGCGTTCGTTCGTTCGTTAACCCTAGCCGGAGTCACCTAGTGCAG,10000 fluorescence intensity (a.u.)
20,AATCTCATATATTTTCATTGAATGTTTTCAAATTGTTGGTCGGAGTCACCTAGTGCAG,9070 fluorescence intensity (a.u.)
21,CTTGCTTCTGCTTGCCCATTTGATGATTTGATTTGATTTGCGGAGTCACCTAGTGCAG,10900 fluorescence intensity (a.u.)
22,GCGGCGGTGGCGGCCGGGGAGGTGGGAGACAGCGGGGTGGCGGAGTCACCTAGTGCAG,16300 fluorescence intensity (a.u.)
23,CCGCGCAATTGACTTTCCCGGCCGCGCACCGCACGTCGTGCGGAGTCACCTAGTGCAG,9210 fluorescence intensity (a.u.)
24,ACCTGGCTGTGCATGTACTACCCCAATGCATTTCTCTCTCCGGAGTCACCTAGTGCAG,8250 fluorescence intensity (a.u.)
25,AGGCTCAAAAGATTCGTCTCGCGGTTTCTAGGTAAGTTATCGGAGTCACCTAGTGCAG,8220 fluorescence intensity (a.u.)
26,CTCCCGCTGCATTTGCTACCAGATCTTCCTCACCGCTAGCCGGAGTCACCTAGTGCAG,9240 fluorescence intensity (a.u.)
27,GCCAGTGCAGCCCACCCGAGGGTTTATATGCGTGCACGCACGGAGTCACCTAGTGCAG,9720 fluorescence intensity (a.u.)

# Reprinted at random: three entries already listed.
row,Sequence,binding signal
25,AGGCTCAAAAGATTCGTCTCGCGGTTTCTAGGTAAGTTATCGGAGTCACCTAGTGCAG,8220 fluorescence intensity (a.u.)
7,CCGCTCTCCACCACTCCGCCTGCCTGCATGTCCACCGCCGCGGAGTCACCTAGTGCAG,8410 fluorescence intensity (a.u.)
10,GTTTGGTCTGTTTCTCTCAGGCCTTCTTTTTTTATTAGCCCGGAGTCACCTAGTGCAG,10200 fluorescence intensity (a.u.)

# Reference: paper PMC7819943, “Rice protein-binding microarrays: a tool to detect cis-acting elements near promoter regions in rice”
